# Data as given in patent US9005649B2, “Methods for making controlled delivery devices having zero order kinetics” (Board of Regents, the University of Texas System, priority 2009, dated 2015).
# Experiment: Drug loading of polyimide tubes
Compound,"average amount loaded per unit length (powder manually loaded, polyimide tubes diameter 1000 microns) [milligrams/cm]","amount of drug loaded per unit length of the tube (ethanolic suspension, positive pressure, polyimide tube diameter 125 microns) [micrograms/mm]","net amount of drug loaded into the tubes (ethanolic suspension, positive pressure, polyimide tube diameter 125 microns, TGA-7) [micrograms]"
CN(C)c1ccc(C(=C2C=CC(=[N+](C)C)C=C2)c2ccc(N(C)C)cc2)cc1 [crystal violet],5.31±0.28,–,–
C[C@]12C=CC(=O)C=C1CC[C@@H]1[C@@H]2[C@@H](O)C[C@@]2(C)[C@H]1CC[C@]2(O)C(=O)CO [prednisolone],–,5.68±0.65,87.58±11.70
